Laboratory results: publication PMC11260447, “OptoLacI: optogenetically engineered lactose operon repressor LacI responsive to light instead of IPTG” (Nucleic Acids Research, 2024)
Results are given in words; binding and its absence hold for the method and conditions named. Some binding calls cover weakened binding; strength is not graded here.

By UniProt entry, the sequences of proteins in these tests, tags left out. Where a name states a change or a piece, a line headed by the entry shows the natural chain unless it says otherwise.
UniProt P03023: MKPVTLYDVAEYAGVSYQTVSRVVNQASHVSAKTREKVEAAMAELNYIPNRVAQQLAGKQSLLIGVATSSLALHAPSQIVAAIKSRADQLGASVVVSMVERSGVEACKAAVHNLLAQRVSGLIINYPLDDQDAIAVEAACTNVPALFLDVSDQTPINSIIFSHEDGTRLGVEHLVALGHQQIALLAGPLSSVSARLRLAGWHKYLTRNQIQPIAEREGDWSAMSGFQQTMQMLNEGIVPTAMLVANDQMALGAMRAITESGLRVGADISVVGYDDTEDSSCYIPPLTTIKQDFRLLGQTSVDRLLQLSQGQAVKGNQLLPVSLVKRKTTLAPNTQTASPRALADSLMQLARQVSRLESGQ

Target: OptoLacI^D2 (LacI^(W220F, 335-LOV2) with K84E) (E. coli | Avena sativa) (UniProt P03023)
Assay: SEC; purified protein incubated 1 hour under blue light, then Superdex 200 Increase 10/300 GL under blue light illumination; 20 mM Hepes pH 7.5, 200 mM NaCl; both purified

Substance: OptoLacI^D2 (LacI^(W220F, 335-LOV2) with K84E) (from UniProt P03023 1-335; O49003 408-543; P03023 336-360)
- binding: binds
